Experimental data taken from article PMC2949800.

By UniProt entry, the sequences of proteins in these tests, tags left out.
UniProt P31314, whole entry T247A: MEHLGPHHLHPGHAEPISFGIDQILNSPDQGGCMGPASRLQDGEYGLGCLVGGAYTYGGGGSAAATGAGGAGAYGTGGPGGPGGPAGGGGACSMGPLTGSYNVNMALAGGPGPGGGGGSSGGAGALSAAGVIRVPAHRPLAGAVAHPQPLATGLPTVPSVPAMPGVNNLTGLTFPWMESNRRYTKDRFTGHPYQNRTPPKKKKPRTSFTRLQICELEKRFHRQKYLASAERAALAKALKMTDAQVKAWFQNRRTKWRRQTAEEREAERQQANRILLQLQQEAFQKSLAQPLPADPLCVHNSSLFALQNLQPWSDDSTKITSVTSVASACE
UniProt P31314, whole entry T247E: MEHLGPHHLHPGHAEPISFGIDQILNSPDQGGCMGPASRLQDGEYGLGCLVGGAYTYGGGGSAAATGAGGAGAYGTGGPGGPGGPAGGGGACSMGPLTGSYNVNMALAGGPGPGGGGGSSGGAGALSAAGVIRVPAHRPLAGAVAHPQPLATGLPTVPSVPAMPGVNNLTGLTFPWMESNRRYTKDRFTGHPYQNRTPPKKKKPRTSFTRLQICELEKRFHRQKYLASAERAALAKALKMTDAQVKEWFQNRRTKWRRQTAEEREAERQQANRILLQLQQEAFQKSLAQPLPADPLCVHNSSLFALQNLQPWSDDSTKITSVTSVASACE

Tests used:
FLAG-HOX11 T247A = FLAG-HOX11 T247A (UniProt P31314); experiment: EMSA; conditions: 10 mM Tris-HCl pH 7.6, 50 mM NaCl, 1 mM EDTA, 5% glycerol, 6 ug nuclear extract in 10 ul, room temperature 30 min; 6% native PAGE, 0.5x TBE, EMSA stain; protein in an extract; label: none (gel stained)
FLAG-HOX11 T247E = FLAG-HOX11 T247E (UniProt P31314); experiment: EMSA; conditions: 10 mM Tris-HCl pH 7.6, 50 mM NaCl, 1 mM EDTA, 5% glycerol, 6 ug nuclear extract in 10 ul, room temperature 30 min; 6% native PAGE, 0.5x TBE, EMSA stain; protein in an extract; label: none (gel stained)

## TCCATCCCAGTAATAAGTGTTTT (double strand) [CCNB1 promoter TAAGTG probe]
FLAG-HOX11 T247A
  binding result: binds
FLAG-HOX11 T247E
  binding result: no binding

Construct, isoform or probe ends are uncertain for at least one entry. Where cells or extracts were used, other partners may take part. For some assays here: A negative result means that nothing was seen under these conditions.
